Test results taken from paper PMC8092204.
Results are given in words; binding and its absence hold for the method and conditions named. In cells and extracts the contact can be indirect. Some binding calls cover weakened binding; strength is not graded here. Where a sequence is shown, tags or fusion partners need not be part of it.

Amino acid sequences for entries named in this document (tags omitted). Residues count along the entry.
UniProt Q06203, residues 12-517: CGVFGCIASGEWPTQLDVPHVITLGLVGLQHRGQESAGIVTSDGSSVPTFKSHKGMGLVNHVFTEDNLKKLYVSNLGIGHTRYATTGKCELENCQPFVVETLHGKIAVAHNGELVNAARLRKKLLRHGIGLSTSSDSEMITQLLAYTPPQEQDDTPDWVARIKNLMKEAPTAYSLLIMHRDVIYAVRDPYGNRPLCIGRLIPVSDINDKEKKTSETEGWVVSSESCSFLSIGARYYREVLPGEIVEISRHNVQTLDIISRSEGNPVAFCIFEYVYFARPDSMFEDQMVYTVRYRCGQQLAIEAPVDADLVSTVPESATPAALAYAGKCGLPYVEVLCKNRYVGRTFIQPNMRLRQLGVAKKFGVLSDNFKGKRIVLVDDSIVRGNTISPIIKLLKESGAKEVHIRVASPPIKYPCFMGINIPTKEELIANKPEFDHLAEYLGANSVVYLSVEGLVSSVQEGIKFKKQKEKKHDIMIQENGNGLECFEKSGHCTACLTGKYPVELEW
UniProt P27708: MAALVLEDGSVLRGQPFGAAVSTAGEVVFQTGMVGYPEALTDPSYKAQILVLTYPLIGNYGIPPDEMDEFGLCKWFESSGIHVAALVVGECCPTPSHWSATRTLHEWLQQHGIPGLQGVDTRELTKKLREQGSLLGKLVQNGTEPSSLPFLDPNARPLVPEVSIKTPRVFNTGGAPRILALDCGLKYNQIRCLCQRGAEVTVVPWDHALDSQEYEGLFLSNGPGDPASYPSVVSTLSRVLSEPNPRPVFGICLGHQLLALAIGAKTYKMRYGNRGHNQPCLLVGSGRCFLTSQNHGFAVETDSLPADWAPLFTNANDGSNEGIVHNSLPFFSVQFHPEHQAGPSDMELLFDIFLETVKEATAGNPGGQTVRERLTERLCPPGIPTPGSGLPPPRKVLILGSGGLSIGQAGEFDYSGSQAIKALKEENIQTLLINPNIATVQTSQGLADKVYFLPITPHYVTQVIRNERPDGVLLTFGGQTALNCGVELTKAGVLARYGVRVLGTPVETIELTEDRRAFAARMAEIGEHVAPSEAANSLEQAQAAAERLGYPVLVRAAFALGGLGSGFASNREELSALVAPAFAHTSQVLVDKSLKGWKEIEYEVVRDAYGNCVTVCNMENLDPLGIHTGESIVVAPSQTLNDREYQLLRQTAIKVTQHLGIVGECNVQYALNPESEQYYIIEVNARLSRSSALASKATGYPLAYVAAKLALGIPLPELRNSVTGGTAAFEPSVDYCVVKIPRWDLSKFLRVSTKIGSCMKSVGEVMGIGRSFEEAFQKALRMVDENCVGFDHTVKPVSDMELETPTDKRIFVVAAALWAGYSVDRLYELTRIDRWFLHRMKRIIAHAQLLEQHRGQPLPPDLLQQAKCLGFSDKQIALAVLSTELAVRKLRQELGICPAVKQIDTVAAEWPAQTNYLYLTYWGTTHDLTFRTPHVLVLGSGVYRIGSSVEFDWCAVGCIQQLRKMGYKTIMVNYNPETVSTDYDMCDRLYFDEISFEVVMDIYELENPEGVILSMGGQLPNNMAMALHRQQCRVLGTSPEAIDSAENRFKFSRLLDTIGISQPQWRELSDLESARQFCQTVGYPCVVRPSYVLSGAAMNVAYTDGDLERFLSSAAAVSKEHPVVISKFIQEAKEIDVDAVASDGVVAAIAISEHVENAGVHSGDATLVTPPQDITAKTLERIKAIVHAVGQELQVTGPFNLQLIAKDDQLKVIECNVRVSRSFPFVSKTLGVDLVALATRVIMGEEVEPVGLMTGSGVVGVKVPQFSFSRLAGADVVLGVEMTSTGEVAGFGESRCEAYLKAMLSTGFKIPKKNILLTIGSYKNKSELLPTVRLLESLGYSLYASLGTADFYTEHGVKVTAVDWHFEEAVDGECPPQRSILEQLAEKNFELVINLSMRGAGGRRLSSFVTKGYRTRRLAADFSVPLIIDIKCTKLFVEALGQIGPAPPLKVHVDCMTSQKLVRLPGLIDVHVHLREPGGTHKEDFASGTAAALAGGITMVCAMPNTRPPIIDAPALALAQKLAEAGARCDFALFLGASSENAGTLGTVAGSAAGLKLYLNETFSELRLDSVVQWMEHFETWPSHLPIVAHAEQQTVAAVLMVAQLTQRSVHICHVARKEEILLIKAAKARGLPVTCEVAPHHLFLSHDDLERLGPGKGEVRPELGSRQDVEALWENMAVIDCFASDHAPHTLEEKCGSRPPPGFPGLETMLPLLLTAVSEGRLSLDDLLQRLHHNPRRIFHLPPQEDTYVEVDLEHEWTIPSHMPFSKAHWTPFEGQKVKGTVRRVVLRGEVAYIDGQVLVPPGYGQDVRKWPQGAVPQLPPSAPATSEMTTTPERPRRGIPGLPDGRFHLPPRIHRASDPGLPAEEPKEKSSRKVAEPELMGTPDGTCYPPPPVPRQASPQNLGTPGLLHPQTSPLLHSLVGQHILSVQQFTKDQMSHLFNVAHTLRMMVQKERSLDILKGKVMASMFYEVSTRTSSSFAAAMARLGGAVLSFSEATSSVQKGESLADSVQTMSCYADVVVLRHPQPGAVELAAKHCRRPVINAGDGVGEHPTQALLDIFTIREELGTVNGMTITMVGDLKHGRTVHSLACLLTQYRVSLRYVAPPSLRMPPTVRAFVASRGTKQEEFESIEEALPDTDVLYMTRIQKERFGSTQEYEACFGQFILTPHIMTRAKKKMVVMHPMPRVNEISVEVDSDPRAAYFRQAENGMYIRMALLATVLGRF

T1: hRIG-I-D495, FLAG- or V5-tagged, of the screen of glutamine amidotransferases (Fig. S4A) (human) (UniProt O95786)
T1 sequence: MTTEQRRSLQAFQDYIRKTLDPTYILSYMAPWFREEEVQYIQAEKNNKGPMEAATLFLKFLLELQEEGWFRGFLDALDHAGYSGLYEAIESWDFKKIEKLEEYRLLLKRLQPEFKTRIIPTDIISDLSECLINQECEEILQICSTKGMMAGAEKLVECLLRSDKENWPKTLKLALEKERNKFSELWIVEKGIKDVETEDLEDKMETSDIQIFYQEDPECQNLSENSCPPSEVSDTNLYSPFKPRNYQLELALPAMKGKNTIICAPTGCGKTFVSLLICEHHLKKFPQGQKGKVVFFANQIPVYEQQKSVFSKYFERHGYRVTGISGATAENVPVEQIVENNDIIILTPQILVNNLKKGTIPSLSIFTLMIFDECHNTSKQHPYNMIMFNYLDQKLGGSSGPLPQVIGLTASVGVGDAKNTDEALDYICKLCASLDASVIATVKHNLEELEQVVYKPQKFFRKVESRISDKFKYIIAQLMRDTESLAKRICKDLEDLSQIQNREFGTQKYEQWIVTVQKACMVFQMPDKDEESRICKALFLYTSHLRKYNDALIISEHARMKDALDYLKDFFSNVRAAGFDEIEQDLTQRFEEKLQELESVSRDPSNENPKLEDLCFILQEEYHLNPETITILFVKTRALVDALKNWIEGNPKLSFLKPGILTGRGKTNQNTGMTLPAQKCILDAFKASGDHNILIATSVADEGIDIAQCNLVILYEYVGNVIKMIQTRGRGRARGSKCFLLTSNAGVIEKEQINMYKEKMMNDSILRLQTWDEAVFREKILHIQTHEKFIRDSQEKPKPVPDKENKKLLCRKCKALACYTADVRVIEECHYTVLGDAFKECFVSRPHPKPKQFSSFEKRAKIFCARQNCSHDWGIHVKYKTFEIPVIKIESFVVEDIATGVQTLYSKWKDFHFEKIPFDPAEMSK

T2: CTPS1, FLAG-tagged (human) (UniProt P17812)
T2 sequence: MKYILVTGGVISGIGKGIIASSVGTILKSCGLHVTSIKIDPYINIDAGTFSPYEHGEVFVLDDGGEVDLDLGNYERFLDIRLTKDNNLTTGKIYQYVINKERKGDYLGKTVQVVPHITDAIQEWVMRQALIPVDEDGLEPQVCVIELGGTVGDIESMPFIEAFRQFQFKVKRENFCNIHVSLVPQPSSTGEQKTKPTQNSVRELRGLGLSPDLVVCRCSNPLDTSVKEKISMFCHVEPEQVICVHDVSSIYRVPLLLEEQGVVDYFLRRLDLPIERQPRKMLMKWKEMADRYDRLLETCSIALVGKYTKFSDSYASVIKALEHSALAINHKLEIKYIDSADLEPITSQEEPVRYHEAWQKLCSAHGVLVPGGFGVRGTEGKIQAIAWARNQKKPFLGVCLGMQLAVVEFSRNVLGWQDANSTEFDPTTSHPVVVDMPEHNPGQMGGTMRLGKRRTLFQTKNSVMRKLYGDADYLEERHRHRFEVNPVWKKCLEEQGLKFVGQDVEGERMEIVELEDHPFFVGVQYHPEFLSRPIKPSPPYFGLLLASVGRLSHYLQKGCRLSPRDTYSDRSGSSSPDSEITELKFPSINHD


Columns and labels:
[1] = target: T1, hRIG-I-D495, FLAG- or V5-tagged, of the screen of glutamine amidotransferases (Fig. S4A) (human); assay: co-IP; 293T cells stably expressing FLAG- or V5-tagged RIG-I transfected with indicated GATs; whole-cell lysates precipitated with anti-FLAG or anti-V5, immunoblot of GATs
[2] = target: T2, CTPS1, FLAG-tagged (human); assay: co-IP; 293T cells transiently transfected with GST-tagged RIG-I-D495 and FLAG-tagged GATs (CTPS1 and PPAT); whole-cell lysates precipitated with anti-FLAG (GAT), immunoblot
[3] = target: phosphoribosylpyrophosphate amidotransferase (PPAT), FLAG-tagged (human) (UniProt Q06203); assay: as above

| Molecule | binding [1] | binding [2] | binding [3] |
| --- | --- | --- | --- |
| CAD (from UniProt P27708 1-2225) (enzyme) | binds |  |  |
| CTPS2 (enzyme, UniProt Q9NRF8 1-586) MKYILVTGGVISGIGKGIIASSIGTILKSCGLRVTAIKIDPYINIDAGTFSPYEHGEVFVLNDGGEVDLDLGNYERFLDINLYKDNNITTGKIYQHVINKERRGDYLGKTVQVVPHITDAVQEWVMNQAKVPVDGNKEEPQICVIELGGTIGDIEGMPFVEAFRQFQFKAKRENFCNIHVSLVPQLSATGEQKTKPTQNSVRALRGLGLSPDLIVCRSSTPIEMAVKEKISMFCHVNPEQVICIHDVSSTYRVPVLLEEQSIVKYFKERLHLPIGDSASNLLFKWRNMADRYERLQKICSIALVGKYTKLRDCYASVFKALEHSALAINHKLNLMYIDSIDLEKITETEDPVKFHEAWQKLCKADGILVPGGFGIRGTLGKLQAISWARTKKIPFLGVCLGMQLAVIEFARNCLNLKDADSTEFRPNAPVPLVIDMPEHNPGNLGGTMRLGIRRTVFKTENSILRKLYGDVPFIEERHRHRFEVNPNLIKQFEQNDLSFVGQDVDGDRMEIIELANHPYFVGVQFHPEFSSRPMKPSPPYLGLLLAATGNLNAYLQQGCKLSSSDRYSDASDDSFSEPRIAELEIS | no binding |  |  |
| glutathione S-transferase (GST)-tagged RIG-I-D495 (protein, UniProt O95786 1-925) MTTEQRRSLQAFQDYIRKTLDPTYILSYMAPWFREEEVQYIQAEKNNKGPMEAATLFLKFLLELQEEGWFRGFLDALDHAGYSGLYEAIESWDFKKIEKLEEYRLLLKRLQPEFKTRIIPTDIISDLSECLINQECEEILQICSTKGMMAGAEKLVECLLRSDKENWPKTLKLALEKERNKFSELWIVEKGIKDVETEDLEDKMETSDIQIFYQEDPECQNLSENSCPPSEVSDTNLYSPFKPRNYQLELALPAMKGKNTIICAPTGCGKTFVSLLICEHHLKKFPQGQKGKVVFFANQIPVYEQQKSVFSKYFERHGYRVTGISGATAENVPVEQIVENNDIIILTPQILVNNLKKGTIPSLSIFTLMIFDECHNTSKQHPYNMIMFNYLDQKLGGSSGPLPQVIGLTASVGVGDAKNTDEALDYICKLCASLDASVIATVKHNLEELEQVVYKPQKFFRKVESRISDKFKYIIAQLMRDTESLAKRICKDLEDLSQIQNREFGTQKYEQWIVTVQKACMVFQMPDKDEESRICKALFLYTSHLRKYNDALIISEHARMKDALDYLKDFFSNVRAAGFDEIEQDLTQRFEEKLQELESVSRDPSNENPKLEDLCFILQEEYHLNPETITILFVKTRALVDALKNWIEGNPKLSFLKPGILTGRGKTNQNTGMTLPAQKCILDAFKASGDHNILIATSVADEGIDIAQCNLVILYEYVGNVIKMIQTRGRGRARGSKCFLLTSNAGVIEKEQINMYKEKMMNDSILRLQTWDEAVFREKILHIQTHEKFIRDSQEKPKPVPDKENKKLLCRKCKALACYTADVRVIEECHYTVLGDAFKECFVSRPHPKPKQFSSFEKRAKIFCARQNCSHDWGIHVKYKTFEIPVIKIESFVVEDIATGVQTLYSKWKDFHFEKIPFDPAEMSK |  | binds | binds |
